Laboratory results: PMC12246428
No constants are given. Whether binding was seen depends on the method and setting. In cells and extracts the contact can be indirect. Some entries that bind do so weakly or less than the wild type.

Chains of the proteins cited; added tags and fusions are not shown.
UniProt P16671: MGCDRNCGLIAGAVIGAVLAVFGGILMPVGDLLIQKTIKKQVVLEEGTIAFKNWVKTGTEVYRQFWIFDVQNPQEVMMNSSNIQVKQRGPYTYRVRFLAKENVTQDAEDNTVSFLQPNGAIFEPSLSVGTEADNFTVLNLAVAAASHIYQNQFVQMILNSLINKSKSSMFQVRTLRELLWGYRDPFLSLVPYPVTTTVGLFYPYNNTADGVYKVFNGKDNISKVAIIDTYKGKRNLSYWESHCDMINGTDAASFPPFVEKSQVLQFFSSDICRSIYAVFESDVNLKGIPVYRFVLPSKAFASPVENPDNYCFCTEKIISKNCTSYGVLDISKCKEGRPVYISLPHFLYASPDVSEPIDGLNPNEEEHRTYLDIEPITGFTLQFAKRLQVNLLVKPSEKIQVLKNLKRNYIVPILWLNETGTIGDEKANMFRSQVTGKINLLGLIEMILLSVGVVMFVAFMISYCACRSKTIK

Molecular target: T1, PLIN2 (human (endogenous in RKO and SW480)) (UniProt Q99541)
T1 sequence: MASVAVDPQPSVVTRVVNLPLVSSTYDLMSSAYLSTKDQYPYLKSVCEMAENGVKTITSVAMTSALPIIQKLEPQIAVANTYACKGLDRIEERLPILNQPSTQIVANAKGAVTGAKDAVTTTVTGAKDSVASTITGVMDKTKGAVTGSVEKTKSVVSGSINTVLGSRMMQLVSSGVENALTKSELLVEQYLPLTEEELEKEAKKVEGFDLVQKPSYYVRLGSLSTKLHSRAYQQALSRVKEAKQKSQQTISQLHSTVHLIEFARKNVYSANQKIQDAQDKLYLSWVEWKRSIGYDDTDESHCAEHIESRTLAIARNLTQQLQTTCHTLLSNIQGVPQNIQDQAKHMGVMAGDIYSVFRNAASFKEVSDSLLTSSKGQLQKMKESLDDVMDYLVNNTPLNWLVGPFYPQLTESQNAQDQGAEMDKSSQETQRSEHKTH
Assay: co-IP; endogenous proteins in RKO or SW480 lysate (IP lysis buffer); primary antibody and protein A/G beads overnight at 4 °C, three washes, Western blot; IgG control

binding: binds
Substance: CD36 (from UniProt P16671 1-472) (receptor)
